B1: Δ70 variant of ^MBPKip2ΔC^GFP (domain or fragment, UniProt P28743 71-560)
chain: KSDPFLHPGRIRIRRSDSINNNSRKNDTYTGSITVTIRPKPRSVGTSRDHVGLKSPRYSQPRSNSHHGSNTFVRDPWFITNDKTIVHEEIGEFKFDHVFASHCTNLEVYERTSKPMIDKLLMGFNATIFAYGMTGSGKTFTMSGNEQELGLIPLSVSYLFTNIMEQSMNGDKKFDVIISYLEIYNERIYDLLESGLEESGSRISTPSRLYMSKSNSNGLGVELKIRDDSQYGVKVIGLTERRCESSEELLRWIAVGDKSRKIGETDYNARSSRSHAIVLIRLTSTNVKNGTSRSSTLSLCDLAGSERATGQQERRKEGSFINKSLLALGTVISKLSADKMNSVGSNIPSPSASGSSSSSGNATNNGTSPSNHIPYRDSKLTRLLQPALSGDSIVTTICTVDTRNDAAAETMNTLRFASRAKNVALHVSKKSIISNGNNDGDKDRTIELLRRQLEEQRRMISELKNRSNIGEPLTKSSNESTYKDIKATGN
B2: ^MBPKip2ΔC^GFP (MBP-fusion of Kip2 lacking the C-terminal tail, Kip2 1-560, followed by GFP) (domain or fragment, UniProt P28743 1-560)
chain: MIQKMSPSLRRPSTRSSSGSSNIPQSPSVRSTSSFSNLTRNSIRSTSNSGSQSISASSTRSNSPLRSVSAKSDPFLHPGRIRIRRSDSINNNSRKNDTYTGSITVTIRPKPRSVGTSRDHVGLKSPRYSQPRSNSHHGSNTFVRDPWFITNDKTIVHEEIGEFKFDHVFASHCTNLEVYERTSKPMIDKLLMGFNATIFAYGMTGSGKTFTMSGNEQELGLIPLSVSYLFTNIMEQSMNGDKKFDVIISYLEIYNERIYDLLESGLEESGSRISTPSRLYMSKSNSNGLGVELKIRDDSQYGVKVIGLTERRCESSEELLRWIAVGDKSRKIGETDYNARSSRSHAIVLIRLTSTNVKNGTSRSSTLSLCDLAGSERATGQQERRKEGSFINKSLLALGTVISKLSADKMNSVGSNIPSPSASGSSSSSGNATNNGTSPSNHIPYRDSKLTRLLQPALSGDSIVTTICTVDTRNDAAAETMNTLRFASRAKNVALHVSKKSIISNGNNDGDKDRTIELLRRQLEEQRRMISELKNRSNIGEPLTKSSNESTYKDIKATGN
B3: ^MBPKip2ΔC^GFP with both EB1-binding motifs mutated (SxIP^1 and SxIP^2, SNIP to SNNN) (domain or fragment, UniProt P28743 1-560)
chain: MIQKMSPSLRRPSTRSSSGSSNNNQSPSVRSTSSFSNLTRNSIRSTSNSGSQSISASSTRSNSPLRSVSAKSDPFLHPGRIRIRRSDSINNNSRKNDTYTGSITVTIRPKPRSVGTSRDHVGLKSPRYSQPRSNSHHGSNTFVRDPWFITNDKTIVHEEIGEFKFDHVFASHCTNLEVYERTSKPMIDKLLMGFNATIFAYGMTGSGKTFTMSGNEQELGLIPLSVSYLFTNIMEQSMNGDKKFDVIISYLEIYNERIYDLLESGLEESGSRISTPSRLYMSKSNSNGLGVELKIRDDSQYGVKVIGLTERRCESSEELLRWIAVGDKSRKIGETDYNARSSRSHAIVLIRLTSTNVKNGTSRSSTLSLCDLAGSERATGQQERRKEGSFINKSLLALGTVISKLSADKMNSVGSNNNSPSASGSSSSSGNATNNGTSPSNHIPYRDSKLTRLLQPALSGDSIVTTICTVDTRNDAAAETMNTLRFASRAKNVALHVSKKSIISNGNNDGDKDRTIELLRRQLEEQRRMISELKNRSNIGEPLTKSSNESTYKDIKATGN
B4: ^MBPKip2ΔC^GFP with the N-terminal SxIP^1 motif mutated (SNIP to SNNN) (domain or fragment, UniProt P28743 1-560)
chain: MIQKMSPSLRRPSTRSSSGSSNNNQSPSVRSTSSFSNLTRNSIRSTSNSGSQSISASSTRSNSPLRSVSAKSDPFLHPGRIRIRRSDSINNNSRKNDTYTGSITVTIRPKPRSVGTSRDHVGLKSPRYSQPRSNSHHGSNTFVRDPWFITNDKTIVHEEIGEFKFDHVFASHCTNLEVYERTSKPMIDKLLMGFNATIFAYGMTGSGKTFTMSGNEQELGLIPLSVSYLFTNIMEQSMNGDKKFDVIISYLEIYNERIYDLLESGLEESGSRISTPSRLYMSKSNSNGLGVELKIRDDSQYGVKVIGLTERRCESSEELLRWIAVGDKSRKIGETDYNARSSRSHAIVLIRLTSTNVKNGTSRSSTLSLCDLAGSERATGQQERRKEGSFINKSLLALGTVISKLSADKMNSVGSNIPSPSASGSSSSSGNATNNGTSPSNHIPYRDSKLTRLLQPALSGDSIVTTICTVDTRNDAAAETMNTLRFASRAKNVALHVSKKSIISNGNNDGDKDRTIELLRRQLEEQRRMISELKNRSNIGEPLTKSSNESTYKDIKATGN

Results are given in words; binding and its absence hold for the method and conditions named. Binding can be weak; no strength is given. Where a sequence is shown, tags or fusion partners need not be part of it.

This assay concerns the target GST-^EB1Bim1 (the EB1 domain of Bim1 as a GST-fusion) (S. cerevisiae). As to the kind of experiment: pull-down; GST-^EB1Bim1 bound to beads (bait), recombinant ^MBPKip2ΔC^GFP variants as prey; Coomassie-stained gels; both purified.
Turning to B1, the binding entry is reported as “binds weakly”. With B2, the binding result is recorded as “binds”. For the molecule B3, the binding entry was “binds”. Consider B4, for which the binding result was “binds”.

For the origin of these results see publication PMC4657329.
